Laboratory results: publication PMC11994786
Results are given in words; binding and its absence hold for the method and conditions named. Binding seen in cells or lysates may run through a third protein. A yes stands for co-enrichment or nearness to the bait. Other partners may have been found.

By UniProt entry, the sequences of proteins in these tests, tags left out.
UniProt P69566: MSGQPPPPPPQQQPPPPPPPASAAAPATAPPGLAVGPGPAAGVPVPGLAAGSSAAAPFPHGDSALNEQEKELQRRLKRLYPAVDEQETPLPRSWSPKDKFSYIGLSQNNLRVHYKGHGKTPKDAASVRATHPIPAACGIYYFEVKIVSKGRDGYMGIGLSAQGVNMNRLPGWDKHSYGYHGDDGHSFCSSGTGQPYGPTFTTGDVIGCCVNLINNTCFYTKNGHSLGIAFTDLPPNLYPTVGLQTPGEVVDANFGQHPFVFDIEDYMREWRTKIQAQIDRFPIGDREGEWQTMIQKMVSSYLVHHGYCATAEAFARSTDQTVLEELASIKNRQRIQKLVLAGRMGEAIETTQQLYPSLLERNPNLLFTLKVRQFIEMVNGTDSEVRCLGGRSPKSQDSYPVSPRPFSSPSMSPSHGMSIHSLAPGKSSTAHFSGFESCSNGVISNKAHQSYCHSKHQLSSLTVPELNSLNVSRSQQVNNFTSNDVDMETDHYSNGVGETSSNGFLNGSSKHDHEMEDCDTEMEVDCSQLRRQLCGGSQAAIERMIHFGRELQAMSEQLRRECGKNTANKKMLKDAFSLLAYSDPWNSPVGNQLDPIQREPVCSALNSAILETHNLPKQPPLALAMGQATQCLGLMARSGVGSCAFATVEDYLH

Columns and labels:
[1] = biological target: RanBP9-V5 (Ran Binding Protein 9 with a V5 tag at the C-terminus) (mouse) (UniProt P69566); test: affinity purification with mass spectrometry; anti-V5 magnetic beads on 1 mg pre-cleared whole lung lysate of LysMBP9X mice, overnight at 4 °C, on-bead trypsin digestion, LC-MS/MS; hits significant (p ≤ 0.05) against V5-IP from WT mice and Ig-IPs
[2] = biological target: RanBP9-3xHA (Ran Binding Protein 9 fused to three copies of the HA tag) (mouse) (UniProt P69566); test: affinity purification with mass spectrometry; anti-HA magnetic beads on 1 mg pre-cleared whole lung lysate of LysMBP9X mice, overnight at 4 °C, on-bead trypsin digestion, LC-MS/MS; hits significant (p ≤ 0.05) against HA-IP from WT mice and Ig-IPs

B1: Rmnd5A (Required for meiotic nuclear division 5 homolog A) (protein, UniProt Q80YQ8 1-391)
chain: MDQCVTVERELEKVLHKFSGYGQLCERGLEELIDYTGGLKHEILQSHGQDAELSGTLSLVLTQCCKRIKDTVQKLASDHKDIHSSVSRVGKAIDKNFDSDISSVGIDGCWQADSQRLLNEVMVEHFFRQGMLDVAEELCQESGLSVDPSQKEPFVELNRILEALKVRVLRPALEWAVSNREMLIAQNSSLEFKLHRLYFISLLMGGTTNQREALQYAKNFQPFALNHQKDIQVLMGSLVYLRQGIENSPYVHLLDANQWADICDIFTRDACALLGLSVESPLSVSFSAGCVALPALINIKAVIEQRQCTGVWNQKDELPIEVDLGKKCWYHSIFACPILRQQTTDNNPPMKLVCGHIISRDALNKMFNGSKLKCPYCPMEQSPGDAKQIFF
binding [1]: binds
binding [2]: binds

B2: Maea (Macrophage erythroblast attacher, E3 ubiquitin ligase) (protein, UniProt Q4VC33 1-396)
chain: MAVQESAAQLSMTLKVQEYPTLKVPYETLNKRFRAAQKNIDRETSHVTMVVAELEKTLSSCPAVDSVVSLLDGVVEKLSVLKRKAVESIQAEDESAKLCKRRIEHLKEHSSDQPAAASMWKRKRMDRMMVEHLLRCGYYNTAVKLARQSGIEDLVNIEMFLTAKEVEESLERRETATCLAWCHDNKSRLRKMKSCLEFSLRIQEFIELVRQNKRLDAVRHARKHFSQAEGSQLDEVRQVMGMLAFPPDTHISPYKDLLDPARWRMLIQQFRYDNYRLHQLGNSSVFTLTLQAGLSAIKTPQCYKEDGSSKSPDCPVCSRSLNKLAQPLPMAHCANSRLVCKISGDVMNENNPPMMLPNGYVYGYNSLLSIRQDDKVVCPRTKEVFHFSQAEKVYIM
binding [1]: binds
binding [2]: binds
